Test results published in the supplement of paper PMC8728848.
Some of the results follow.

Assays:
Assay in all cases: glycan array binding signal (z-score within array); higher = stronger binding
Conditions in all cases: glycan notation: IUPAC condensed, linker removed
[1] = biological target: GalNAc(b1-6)GalNAc
Outline: (§1)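 The Consortium for Functional Glycomics database supplied 3228 glycan arrays, of which those lacking an available protein sequence were dropped. The binding signal, a within-array Z-score, was averaged across arrays of the same protein sequence and across linkers. Negative scores can be read as non-binding.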

[2] = biological target: Glc(a1-4)Glc
Outline: as §1

[3] = biological target: Glc(a1-4)Glc(a1-4)Glc(a1-4)Glc
Outline: as §1

[4] = biological target: Glc(a1-6)Glc(a1-6)Glc
Outline: as §1

[5] = biological target: Glc(a1-6)Glc(a1-6)Glc(a1-6)Glc
Outline: as §1

[6] = biological target: Glc(b1-4)Glc
Outline: as §1

[7] = biological target: Glc(b1-6)Glc
Outline: as §1

[8] = biological target: GlcA(b1-3)Gal
Outline: as §1

[9] = biological target: GlcA(b1-3)GlcNAc
Outline: as §1

[10] = biological target: GlcA(b1-6)Gal
Outline: as §1

[11] = biological target: GlcNAc(a1-3)Gal(b1-4)GlcNAc
Outline: as §1

[12] = biological target: GlcNAc(a1-4)Gal(b1-3)GlcNAc
Outline: as §1

[13] = biological target: GlcNAc(a1-4)Gal(b1-4)GalNAc
Outline: as §1

[14] = biological target: GlcNAc(a1-4)Gal(b1-4)GlcNAc
Outline: as §1

[15] = biological target: GlcNAc(a1-4)Gal(b1-4)GlcNAc(b1-3)Gal(b1-4)Glc
Outline: as §1

[16] = biological target: GlcNAc(a1-4)Gal(b1-4)GlcNAc(b1-3)Gal(b1-4)GlcNAc
Outline: as §1

[17] = biological target: GlcNAc(a1-4)Gal(b1-4)GlcNAc(b1-3)Gal(b1-4)GlcNAc(b1-3)Gal(b1-4)GlcNAc
Outline: as §1

[18] = biological target: GlcNAc(a1-4)Gal(b1-4)GlcNAc(b1-3)Gal(b1-4)[Fuc(a1-3)]GlcNAc(b1-3)Gal(b1-4)[Fuc(a1-3)]GlcNAc
Outline: as §1

[19] = biological target: GlcNAc(a1-6)Gal(b1-4)GlcNAc
Outline: as §1

[20] = biological target: GlcNAc(b1-2)Gal(b1-3)GalNAc
Outline: as §1

[21] = biological target: GlcNAc(b1-2)Man(a1-3)[GlcNAc(b1-2)Man(a1-6)]Man(b1-4)GlcNAc(b1-4)GlcNAc
Outline: as §1

[22] = biological target: GlcNAc(b1-2)Man(a1-3)[GlcNAc(b1-2)Man(a1-6)]Man(b1-4)GlcNAc(b1-4)[Fuc(a1-6)]GlcNAc
Outline: as §1

[23] = biological target: GlcNAc(b1-2)Man(a1-3)[GlcNAc(b1-4)][GlcNAc(b1-2)Man(a1-6)]Man(b1-4)GlcNAc(b1-4)GlcNAc
Outline: as §1

[24] = biological target: GlcNAc(b1-2)[GlcNAc(b1-4)]Man(a1-3)[GlcNAc(b1-2)Man(a1-6)]Man(b1-4)GlcNAc(b1-4)GlcNAc
Outline: as §1

[25] = biological target: GlcNAc(b1-2)[GlcNAc(b1-4)]Man(a1-3)[GlcNAc(b1-4)][GlcNAc(b1-2)Man(a1-6)]Man(b1-4)GlcNAc(b1-4)GlcNAc
Outline: as §1

[26] = biological target: GlcNAc(b1-2)[GlcNAc(b1-4)]Man(a1-3)[GlcNAc(b1-4)][GlcNAc(b1-2)[GlcNAc(b1-6)]Man(a1-6)]Man(b1-4)GlcNAc(b1-4)GlcNAc
Outline: as §1

[27] = biological target: GlcNAc(b1-2)[GlcNAc(b1-6)]Man(a1-6)[GlcNAc(b1-2)Man(a1-3)]Man(b1-4)GlcNAc(b1-4)GlcNAc
Outline: as §1

[28] = biological target: GlcNAc(b1-2)[GlcNAc(b1-6)]Man(a1-6)[GlcNAc(b1-2)Man(a1-3)][GlcNAc(b1-4)]Man(b1-4)GlcNAc(b1-4)GlcNAc
Outline: as §1

[29] = biological target: GlcNAc(b1-3)Gal
Outline: as §1

[30] = biological target: GlcNAc(b1-3)Gal(b1-3)GalNAc
Outline: as §1

[31] = biological target: GlcNAc(b1-3)Gal(b1-4)Glc
Outline: as §1

[32] = biological target: GlcNAc(b1-3)Gal(b1-4)GlcNAc
Outline: as §1

[33] = biological target: GlcNAc(b1-3)Gal(b1-4)GlcNAc(b1-3)Gal(b1-4)GlcNAc
Outline: as §1

[34] = biological target: GlcNAc(b1-3)GalNAc
Outline: as §1

[35] = biological target: GlcNAc(b1-3)Man
Outline: as §1

[36] = biological target: GlcNAc(b1-3)[GlcNAc(b1-4)][GlcNAc(b1-6)]GlcNAc
Outline: as §1

[37] = biological target: GlcNAc(b1-3)[GlcNAc(b1-6)]Gal(b1-4)GlcNAc
Outline: as §1

[38] = biological target: GlcNAc(b1-3)[GlcNAc(b1-6)]GalNAc
Outline: as §1

[39] = biological target: GlcNAc(b1-4)Gal(b1-4)GlcNAc
Outline: as §1

[40] = biological target: GlcNAc(b1-4)GlcNAc
Outline: as §1

[41] = biological target: GlcNAc(b1-4)GlcNAc(b1-4)GlcNAc
Outline: as §1

[42] = biological target: GlcNAc(b1-4)GlcNAc(b1-4)GlcNAc(b1-4)GlcNAc(b1-4)GlcNAc
Outline: as §1

[43] = biological target: GlcNAc(b1-4)GlcNAc(b1-4)GlcNAc(b1-4)GlcNAc(b1-4)GlcNAc(b1-4)GlcNAc
Outline: as §1

[44] = biological target: GlcNAc(b1-4)[GlcNAc(b1-6)]GalNAc
Outline: as §1

[45] = biological target: GlcNAc(b1-6)Gal(b1-4)GlcNAc
Outline: as §1

[46] = biological target: GlcNAc(b1-6)GalNAc
Outline: as §1

[47] = biological target: GlcNAc3Prop(b1-4)GlcNAc
Outline: as §1

[48] = biological target: GlcNAc6S(b1-3)Gal(b1-4)GlcNAc
Outline: as §1

[49] = biological target: Kdn(a2-3)Gal(b1-3)GalNAc
Outline: as §1

[50] = biological target: Kdn(a2-3)Gal(b1-3)GlcNAc
Outline: as §1

[51] = biological target: Kdn(a2-3)Gal(b1-4)Glc
Outline: as §1

[52] = biological target: Kdn(a2-3)Gal(b1-4)GlcNAc
Outline: as §1

[53] = biological target: Kdn(a2-3)Gal(b1-4)[Fuc(a1-3)]GlcNAc
Outline: as §1

[54] = biological target: Kdn(a2-6)Gal(b1-4)GlcNAc
Outline: as §1

[55] = biological target: Man(a1-2)Man(a1-2)Man(a1-3)Man
Outline: as §1

[56] = biological target: Man(a1-2)Man(a1-2)Man(a1-6)[Man(a1-3)]Man
Outline: as §1

[57] = biological target: Man(a1-2)Man(a1-3)Man
Outline: as §1

[58] = biological target: Man(a1-2)Man(a1-3)[Man(a1-2)Man(a1-6)]Man
Outline: as §1

[59] = biological target: Man(a1-2)Man(a1-3)[Man(a1-2)Man(a1-6)]Man(a1-6)[Man(a1-2)Man(a1-2)Man(a1-3)]Man
Outline: as §1

[60] = biological target: Man(a1-2)Man(a1-3)[Man(a1-2)Man(a1-6)]Man(a1-6)[Man(a1-2)Man(a1-2)Man(a1-3)]Man(b1-4)GlcNAc(b1-4)GlcNAc
Outline: as §1

B1: RetS (Pseudomonas aeruginosa), Q9HUV7 (protein)
chain: MVRLRIAIGLLVSFLLLLLGPMSPAVADDAGVSSVPLQTTATTPSANQNWRLLRDESAQLRIADVLQRKEQFRPLAKRSFIFPASPQAVWLQVQLPAQKVPSWLWIFAPRVQYLDYYLVQDGQLVRDQHTGESRPFQERPLPSRSYLFSLPVDGKPMTLYVRMTSNHPLMAWFDQIDEAGLVGLEKPAYAFGMLLGGMLLLLMYNLIRFAYSRSASSLWLAAVHAALAVCAAANLGLVAFWLPGLKFNQSLTADLGALGAAVSLLWFACSFFRGTAESRLNRLLQGEALLILAVGAIIAFTQQLWFSWLIYLLVILSSLSVPLIAAWHWYRGYQPARLIVAGMIVFNAGFMVFLPVLFGTKQLDPGWLVLGVFSFATLAGLVLSVSLTERQRLIQQLNLQQRTSEAAHTAELQTKAEFLAKISHEIRTPMNGVLGMTELLLGTPLSAKQRDYVQTIHSAGNELLTLINEILDISKLESGQIELDEVQFDLNALIEDCLDIFRVKAEQQRIELISFTQPQVPRVIGGDPTRLRQVVLSLLDNAFKQTEEGEILLVVALDDQGETPRLRIAVQDSGHPFDAKEREALLTAELHSGDFLSASKLGSHLGLIIARQLVRLMGGEFGIQSGSSQGTTLSLTLPLDPQQLENPTADLDGPLQGARLLVVDDNETCRKVLVQQCSGWGLNVSAVSSGKEALAQLRTKAHLREYFDVVLLDQDMPGMTGMQLAAKIKEDPNLNHDILLIMLTGISNAPSKIIARNAGIKRILAKPVAGYTLKATLADELAQRGVSGVTNYLQPAKEAQAPSLPSDFRILVAEDNSISTKVIRGMLNKLNLQPDTASNGQEALSAMKATQYDLVLMDCEMPVLDGFSATEQLRAWEAHEQRPHTPVVALTAHILSEHKERARLVGMDGHMAKPVELSQLRELIAYWVGERDRRRQGDALPS
- glycan array binding signal (z-score) [1]: 0.146
- glycan array binding signal (z-score) [2]: 0.174
- glycan array binding signal (z-score) [3]: -0.095
- glycan array binding signal (z-score) [4]: 0.692
- glycan array binding signal (z-score) [5]: -0.394
- glycan array binding signal (z-score) [6]: 1.52
- glycan array binding signal (z-score) [7]: -0.696
- glycan array binding signal (z-score) [8]: -0.719
- glycan array binding signal (z-score) [9]: 0.305
- glycan array binding signal (z-score) [10]: -0.623
- glycan array binding signal (z-score) [11]: 0.688
- glycan array binding signal (z-score) [12]: -0.22
- glycan array binding signal (z-score) [13]: 0.737
- glycan array binding signal (z-score) [14]: -0.409
- glycan array binding signal (z-score) [15]: 0.236
- glycan array binding signal (z-score) [16]: 6.62
- glycan array binding signal (z-score) [17]: -1.06
- glycan array binding signal (z-score) [18]: 4.27
- glycan array binding signal (z-score) [19]: -1.48
- glycan array binding signal (z-score) [20]: -0.622
- glycan array binding signal (z-score) [21]: 0.152
- glycan array binding signal (z-score) [22]: -0.49
- glycan array binding signal (z-score) [23]: 2.21
- glycan array binding signal (z-score) [24]: -0.599
- glycan array binding signal (z-score) [25]: -0.278
- glycan array binding signal (z-score) [26]: -0.414
- glycan array binding signal (z-score) [27]: 0.394
- glycan array binding signal (z-score) [28]: 0.595
- glycan array binding signal (z-score) [29]: 0.006
- glycan array binding signal (z-score) [30]: 0.065
- glycan array binding signal (z-score) [31]: 2.75
- glycan array binding signal (z-score) [32]: -0.607
- glycan array binding signal (z-score) [33]: -0.992
- glycan array binding signal (z-score) [34]: -0.143
- glycan array binding signal (z-score) [35]: -0.263
- glycan array binding signal (z-score) [36]: -0.724
- glycan array binding signal (z-score) [37]: 0.412
- glycan array binding signal (z-score) [38]: -0.56
- glycan array binding signal (z-score) [39]: -0.862
- glycan array binding signal (z-score) [40]: -0.501
- glycan array binding signal (z-score) [41]: -1.57
- glycan array binding signal (z-score) [42]: -0.702
- glycan array binding signal (z-score) [43]: 0.22
- glycan array binding signal (z-score) [44]: 1.11
- glycan array binding signal (z-score) [45]: -0.028
- glycan array binding signal (z-score) [46]: -0.463
- glycan array binding signal (z-score) [47]: -0.222
- glycan array binding signal (z-score) [48]: -0.899
- glycan array binding signal (z-score) [49]: -1.13
- glycan array binding signal (z-score) [50]: -0.528
- glycan array binding signal (z-score) [51]: -0.793
- glycan array binding signal (z-score) [52]: -1.53
- glycan array binding signal (z-score) [53]: -1.35
- glycan array binding signal (z-score) [54]: 0.579
- glycan array binding signal (z-score) [55]: 0.185
- glycan array binding signal (z-score) [56]: -0.219
- glycan array binding signal (z-score) [57]: -1.17
- glycan array binding signal (z-score) [58]: 1.24
- glycan array binding signal (z-score) [59]: 0.352
- glycan array binding signal (z-score) [60]: -0.741
